PubChem BioAssay AID602196 | INSERM – 2012
Purpose: 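Genes whose knock-down alters cisplatin killing of lung cancer cells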. Cells: human A549 lung cancer cells. Reagent: siRNA pair against human genes. Duration: 48 h transfection before cisplatin; time from cisplatin to read-out not stated. Conditions: cisplatin at a dose killing half of control-siRNA cells; exact dose and duration not given. Measured: 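Cisplatin cell death as a shift from the 50% death seen with control siRNA; siRNAs toxic or growth-blocking alone scored 0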. Reading the numbers: two-siRNA summed score (-2 to +2): higher = both siRNAs protect from cisplatin killing; -2 means both sensitise; mean protection from cisplatin (shift in death) and protection from cisplatin (shift in death), siRNA C and protection from cisplatin (shift in death), siRNA D: higher = protection from cisplatin killing. Rule for the call: 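Each siRNA scores 0 if harmful alone by LDH or WST-1, otherwise +1 if it reduces and -1 if it increases cisplatin killing; a gene is active when both siRNAs agree (sum +2 or -2)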. Meaning of the calls: active = both siRNAs shift cisplatin killing the same way; inactive = no consistent shift, or siRNA harmful alone.
This is a random part of about 23,000 deposited reagents. 455 of them (2%) were called active. 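Active includes both protection and sensitisation; some change values fall well beyond the stated -50 to +50 range.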 The record does not give: the amount of reagent.

| gene | two-siRNA summed score (-2 to +2) | mean protection from cisplatin (shift in death) (%) | protection from cisplatin (shift in death), siRNA C (%) | protection from cisplatin (shift in death), siRNA D (%) | call |
| --- | --- | --- | --- | --- | --- |
| BAALC | 0 | 2 | -11.1 | 15.1 | inactive |
| LOC131149 | 0 | 5.1 | 11.2 | -1.1 | inactive |
| LOC440895 | 0 | 3.4 | -2.4 | 9.3 | inactive |
| LOC441035 (retired record) | 0 | 7.9 | 2.8 | 12.9 | inactive |
| WWP2 | 0 | -9.2 | -5.3 | -13 | inactive |
| GDF2 | 1 | 4.2 | -3.7 | 12.1 | inactive |
| HAT1 | 0 | 7 | 4.5 | 9.6 | inactive |
| LOC440799 | 1 | 16.4 | 13.4 | 19.5 | inactive |
| SH3YL1 | 0 | 2.2 | 10.1 | -5.7 | inactive |
| PCDHA4 | 0 | 6.5 | 5.8 | 7.1 | inactive |
| LINC00652 | 1 | 5.1 | 2.4 | 7.8 | inactive |
| LOC143158 | 0 | 14.9 | 22.6 | 7.2 | inactive |
| UNC79 | 0 | 2.9 | 0.1 | 5.7 | inactive |
| LAMP3 | -1 | -15.5 | -8.5 | -22.4 | inactive |
| LMOD3 | 0 | 0.6 | -0.3 | 1.4 | inactive |
| FIP1L1 | 0 | 1.4 | 0 | 2.8 | inactive |
| TRIM32 | 1 | 7.9 | 0.7 | 15 | inactive |
| LOC345079 | 0 | -4.5 | -2.2 | -6.8 | inactive |
| LOC387784 | 1 | 11.3 | 5.9 | 16.6 | inactive |
| CEP76 | 0 | 9.6 | 16.6 | 2.6 | inactive |
| MGC70870 | 0 | 8.9 | 10 | 7.8 | inactive |
| NOTCH1 | 0 | -13.8 | -15.5 | -12 | inactive |
| ZXDC | -1 | 2.2 | 13.8 | -9.5 | inactive |
